Some of these results come from one statement about several compounds together.
Each compound was assayed on rice blast pathogen (Pyricularia oryzae). Conditions: emulsion dripped into soil at 200 ppm active ingredient, rice seedlings (Hitomebore); inoculated after 14 days; lesions vs untreated.
Format: in vivo

Row | Structure (SMILES) | control value (evaluated A/B)
1 | CC1(C)COc2ccccc2C(c2cnc3ccccc3c2)=N1 [B1-3, 3,3-Dimethyl-5-(3-quinolinyl)-2,3-dihydro-benzo[f][1,4]oxazepine] | B (Control value of 40 to less than 60%)
2 | c1ccc2c(c1)OCCN=C2c1cnc2ccccc2c1 [B1-1, 5-(3-Quinolinyl)-2,3-dihydro-benzo[f][1,4]oxazepine] | A (Control value of 60% or more)
3 | CC1(C)CN=C(c2cnc3c(F)cccc3c2)c2cccc(F)c2O1 [B1-38, 2,2-Dimethyl-9-fluoro-5-(8-fluoro-quinolin-3-yl)-2,3-dihydro-benzo[f][1,4]oxazepine] | A (Control value of 60% or more)
4 | CC1(C)CN=C(c2cnc3sccc3c2)c2cccc(Cl)c2O1 [A1-20, 9-Chloro-2,2-dimethyl-5-(thieno[2,3-b]pyridin-5-yl)-2,3-dihydro-benzo[f][1,4]oxazepine] | A (Control value of 60% or more)
5 | CC1(C)CN=C(c2cnc3c(F)cccc3c2)c2cccc(Cl)c2O1 [B1-39, 9-Chloro-5-(8-fluoro-quinolin-3-yl)-2,2-dimethyl-2,3-dihydro-benzo[f][1,4]oxazepine] | A (Control value of 60% or more)
6 | CC1(C)CN=C(c2cnc3c(F)cccc3c2)c2ccccc2O1 [B1-37, 5-(8-Fluoro-quinolin-3-yl)-2,2-dimethyl-2,3-dihydro-benzo[f][1,4]oxazepine] | B (Control value of 40 to less than 60%)

— patent US8557738B2, “Nitrogen-containing heterocyclic derivative and fungicide for agricultural and horticultural use” (Nippon Soda Co., Ltd., priority 2008, dated 2013)
